From article PMC6834667

Chains of the proteins cited; added tags and fusions are not shown. Lines headed by an entry give the natural chain unless they say otherwise; changes in a name come on top.
UniProt P48681: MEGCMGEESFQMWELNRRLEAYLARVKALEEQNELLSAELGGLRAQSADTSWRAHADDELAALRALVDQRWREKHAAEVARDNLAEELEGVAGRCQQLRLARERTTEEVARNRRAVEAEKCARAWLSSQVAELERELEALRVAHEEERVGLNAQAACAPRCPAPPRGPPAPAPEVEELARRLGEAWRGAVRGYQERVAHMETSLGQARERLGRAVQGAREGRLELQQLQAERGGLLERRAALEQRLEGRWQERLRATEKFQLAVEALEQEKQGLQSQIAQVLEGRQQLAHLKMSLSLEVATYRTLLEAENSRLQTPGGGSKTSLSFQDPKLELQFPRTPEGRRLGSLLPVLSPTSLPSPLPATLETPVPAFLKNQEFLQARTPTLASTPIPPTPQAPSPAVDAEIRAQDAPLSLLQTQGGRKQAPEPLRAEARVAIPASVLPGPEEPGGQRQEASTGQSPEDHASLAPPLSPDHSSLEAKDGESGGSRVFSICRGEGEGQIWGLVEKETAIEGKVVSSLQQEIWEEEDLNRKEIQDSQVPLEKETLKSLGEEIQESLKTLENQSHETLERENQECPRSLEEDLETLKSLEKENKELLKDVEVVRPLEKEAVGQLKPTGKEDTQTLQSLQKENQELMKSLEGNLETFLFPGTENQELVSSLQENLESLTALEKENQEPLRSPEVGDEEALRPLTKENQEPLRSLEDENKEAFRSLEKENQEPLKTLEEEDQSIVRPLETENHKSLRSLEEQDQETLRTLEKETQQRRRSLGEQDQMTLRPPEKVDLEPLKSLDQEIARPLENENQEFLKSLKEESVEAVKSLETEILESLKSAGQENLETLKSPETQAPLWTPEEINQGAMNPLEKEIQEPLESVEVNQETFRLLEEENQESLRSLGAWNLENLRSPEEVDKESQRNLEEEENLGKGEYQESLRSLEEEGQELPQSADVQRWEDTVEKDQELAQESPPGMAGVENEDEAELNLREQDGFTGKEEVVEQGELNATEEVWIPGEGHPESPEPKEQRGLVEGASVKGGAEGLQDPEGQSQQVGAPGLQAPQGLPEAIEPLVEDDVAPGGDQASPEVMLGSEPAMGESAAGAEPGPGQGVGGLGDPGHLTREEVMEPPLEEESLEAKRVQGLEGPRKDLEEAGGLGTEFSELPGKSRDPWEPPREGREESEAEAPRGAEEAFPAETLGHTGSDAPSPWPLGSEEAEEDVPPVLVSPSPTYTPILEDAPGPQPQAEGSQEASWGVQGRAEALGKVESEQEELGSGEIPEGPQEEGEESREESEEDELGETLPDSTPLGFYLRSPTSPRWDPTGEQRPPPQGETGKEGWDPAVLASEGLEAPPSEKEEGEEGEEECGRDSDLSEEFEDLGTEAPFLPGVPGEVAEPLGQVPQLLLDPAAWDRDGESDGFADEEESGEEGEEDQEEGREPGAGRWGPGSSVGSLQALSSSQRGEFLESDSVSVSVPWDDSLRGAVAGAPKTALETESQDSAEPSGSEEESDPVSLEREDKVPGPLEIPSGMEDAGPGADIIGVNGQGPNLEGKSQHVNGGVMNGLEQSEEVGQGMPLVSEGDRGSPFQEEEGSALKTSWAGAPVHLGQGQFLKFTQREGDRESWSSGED
UniProt Q14145: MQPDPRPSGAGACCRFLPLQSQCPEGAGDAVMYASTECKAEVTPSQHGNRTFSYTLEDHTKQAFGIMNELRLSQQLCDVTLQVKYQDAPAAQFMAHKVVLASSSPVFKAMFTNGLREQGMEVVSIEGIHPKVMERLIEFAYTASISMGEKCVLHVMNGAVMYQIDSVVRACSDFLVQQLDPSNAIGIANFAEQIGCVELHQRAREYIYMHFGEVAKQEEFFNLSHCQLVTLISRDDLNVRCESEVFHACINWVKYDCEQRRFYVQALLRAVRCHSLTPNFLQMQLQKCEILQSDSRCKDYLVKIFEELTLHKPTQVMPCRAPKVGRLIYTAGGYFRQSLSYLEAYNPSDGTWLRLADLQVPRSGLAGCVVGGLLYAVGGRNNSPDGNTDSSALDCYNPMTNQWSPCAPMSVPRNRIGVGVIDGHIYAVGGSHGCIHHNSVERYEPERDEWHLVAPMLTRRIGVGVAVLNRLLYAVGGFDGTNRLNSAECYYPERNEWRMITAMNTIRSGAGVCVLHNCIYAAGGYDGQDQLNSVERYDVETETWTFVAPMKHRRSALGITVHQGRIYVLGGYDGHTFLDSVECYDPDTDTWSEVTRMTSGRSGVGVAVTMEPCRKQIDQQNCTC

Target: Nestin-ΔESGE (deletion mutant) (UniProt P48681)
Assay: co-IP; Myc-Nestin or its mutants transfected into NSCLC cells; whole-cell lysates in IP lysis buffer immunoprecipitated with anti-Myc and Protein G magnetic beads, overnight at 4 °C; blotted for endogenous proteins

Row | binding | Substance
1 | no binding | Kelch-like ECH-associated protein 1 (Keap1) G333C, endogenous in A549 (from UniProt Q14145 1-624)
2 | no binding | Kelch-like ECH-associated protein 1 (Keap1), wild type, endogenous in H1299 (from UniProt Q14145 1-624)

These are yes or no findings as the source states them, for the method shown. In cells and extracts the contact can be indirect.
